The values that follow come from the supplement of paper PMC10849652.

Protein sequences, listed by entry. Tags and fused reporters are not part of them. Lines headed by an entry give the natural chain unless they say otherwise; changes in a name come on top.
UniProt P22415: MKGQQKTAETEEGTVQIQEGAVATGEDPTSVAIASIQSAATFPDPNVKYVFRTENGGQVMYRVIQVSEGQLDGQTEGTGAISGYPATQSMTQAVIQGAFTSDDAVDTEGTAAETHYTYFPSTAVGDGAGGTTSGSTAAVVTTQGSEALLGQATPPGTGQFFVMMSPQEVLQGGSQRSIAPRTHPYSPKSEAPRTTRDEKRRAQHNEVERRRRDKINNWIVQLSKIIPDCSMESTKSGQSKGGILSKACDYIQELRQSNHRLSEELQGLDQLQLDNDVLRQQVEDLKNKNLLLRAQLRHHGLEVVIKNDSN
UniProt P14927: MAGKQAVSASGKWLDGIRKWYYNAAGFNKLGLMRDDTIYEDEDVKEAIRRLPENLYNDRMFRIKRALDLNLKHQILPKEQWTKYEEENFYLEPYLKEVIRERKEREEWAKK
UniProt P51784: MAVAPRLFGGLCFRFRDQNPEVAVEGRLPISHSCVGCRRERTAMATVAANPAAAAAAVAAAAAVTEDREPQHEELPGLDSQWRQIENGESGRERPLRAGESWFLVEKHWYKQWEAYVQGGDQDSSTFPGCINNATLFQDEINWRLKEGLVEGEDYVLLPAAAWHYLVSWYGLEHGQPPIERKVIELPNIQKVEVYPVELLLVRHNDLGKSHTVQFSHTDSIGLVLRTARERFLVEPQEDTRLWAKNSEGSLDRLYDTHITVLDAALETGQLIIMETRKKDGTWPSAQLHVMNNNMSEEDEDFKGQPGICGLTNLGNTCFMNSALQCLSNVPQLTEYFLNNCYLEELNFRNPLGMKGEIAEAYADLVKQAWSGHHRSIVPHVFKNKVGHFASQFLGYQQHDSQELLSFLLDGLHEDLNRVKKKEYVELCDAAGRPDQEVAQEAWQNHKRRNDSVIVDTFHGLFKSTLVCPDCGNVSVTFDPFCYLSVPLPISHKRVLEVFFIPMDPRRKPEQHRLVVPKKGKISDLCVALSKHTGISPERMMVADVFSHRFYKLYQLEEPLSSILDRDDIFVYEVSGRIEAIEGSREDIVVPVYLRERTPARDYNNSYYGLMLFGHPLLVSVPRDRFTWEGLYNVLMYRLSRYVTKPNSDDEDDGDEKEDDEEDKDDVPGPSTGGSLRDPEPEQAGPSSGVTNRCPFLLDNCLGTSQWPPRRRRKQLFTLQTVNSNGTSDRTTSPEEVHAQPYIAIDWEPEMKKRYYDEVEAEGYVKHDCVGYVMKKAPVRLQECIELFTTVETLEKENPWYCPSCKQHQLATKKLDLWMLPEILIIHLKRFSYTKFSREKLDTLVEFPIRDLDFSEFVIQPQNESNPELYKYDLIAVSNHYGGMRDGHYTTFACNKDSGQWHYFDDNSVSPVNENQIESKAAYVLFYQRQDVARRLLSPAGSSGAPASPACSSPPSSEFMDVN
UniProt Q9Y6I4: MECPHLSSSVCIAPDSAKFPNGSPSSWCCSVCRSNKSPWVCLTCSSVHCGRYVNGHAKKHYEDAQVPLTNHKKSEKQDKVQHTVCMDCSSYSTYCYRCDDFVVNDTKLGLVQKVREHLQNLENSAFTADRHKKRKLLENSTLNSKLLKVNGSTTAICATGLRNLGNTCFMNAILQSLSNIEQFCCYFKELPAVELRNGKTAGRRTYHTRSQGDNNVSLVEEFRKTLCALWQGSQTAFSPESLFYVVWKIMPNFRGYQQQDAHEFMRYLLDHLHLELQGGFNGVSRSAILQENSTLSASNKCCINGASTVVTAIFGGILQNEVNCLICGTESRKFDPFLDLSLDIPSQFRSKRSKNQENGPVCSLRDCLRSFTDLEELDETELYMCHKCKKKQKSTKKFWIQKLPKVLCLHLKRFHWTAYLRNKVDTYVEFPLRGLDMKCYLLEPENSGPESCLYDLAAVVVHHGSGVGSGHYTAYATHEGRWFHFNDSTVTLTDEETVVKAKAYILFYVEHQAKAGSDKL
UniProt Q9H9C1: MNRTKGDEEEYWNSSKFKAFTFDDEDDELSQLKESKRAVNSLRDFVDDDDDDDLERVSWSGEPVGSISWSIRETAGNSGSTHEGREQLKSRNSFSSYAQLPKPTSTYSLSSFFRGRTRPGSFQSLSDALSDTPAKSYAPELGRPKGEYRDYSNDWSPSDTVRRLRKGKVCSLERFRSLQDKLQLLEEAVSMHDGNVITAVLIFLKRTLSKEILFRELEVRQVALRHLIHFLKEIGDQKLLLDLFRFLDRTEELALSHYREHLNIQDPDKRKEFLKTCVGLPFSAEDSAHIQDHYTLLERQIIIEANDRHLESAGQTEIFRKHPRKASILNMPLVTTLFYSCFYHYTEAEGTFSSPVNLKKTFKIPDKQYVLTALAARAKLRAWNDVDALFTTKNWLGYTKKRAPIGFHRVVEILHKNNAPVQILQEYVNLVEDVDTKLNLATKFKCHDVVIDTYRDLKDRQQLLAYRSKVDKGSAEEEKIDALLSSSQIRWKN
UniProt Q9NYH9: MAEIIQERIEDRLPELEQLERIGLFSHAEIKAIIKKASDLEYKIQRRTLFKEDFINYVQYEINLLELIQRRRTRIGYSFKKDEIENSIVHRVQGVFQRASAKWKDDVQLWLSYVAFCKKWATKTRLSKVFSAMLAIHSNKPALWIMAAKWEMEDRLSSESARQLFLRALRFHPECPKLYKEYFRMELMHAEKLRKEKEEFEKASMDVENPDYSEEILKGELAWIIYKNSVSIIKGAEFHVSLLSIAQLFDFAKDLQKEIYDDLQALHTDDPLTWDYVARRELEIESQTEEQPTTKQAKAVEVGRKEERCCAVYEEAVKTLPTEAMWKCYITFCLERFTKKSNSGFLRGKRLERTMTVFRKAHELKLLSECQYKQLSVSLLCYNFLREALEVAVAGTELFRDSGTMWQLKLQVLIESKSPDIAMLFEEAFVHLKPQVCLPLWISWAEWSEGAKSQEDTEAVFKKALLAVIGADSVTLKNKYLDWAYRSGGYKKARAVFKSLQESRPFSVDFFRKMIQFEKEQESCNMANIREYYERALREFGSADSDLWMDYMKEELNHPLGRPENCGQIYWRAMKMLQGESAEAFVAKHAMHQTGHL
UniProt Q96JH7: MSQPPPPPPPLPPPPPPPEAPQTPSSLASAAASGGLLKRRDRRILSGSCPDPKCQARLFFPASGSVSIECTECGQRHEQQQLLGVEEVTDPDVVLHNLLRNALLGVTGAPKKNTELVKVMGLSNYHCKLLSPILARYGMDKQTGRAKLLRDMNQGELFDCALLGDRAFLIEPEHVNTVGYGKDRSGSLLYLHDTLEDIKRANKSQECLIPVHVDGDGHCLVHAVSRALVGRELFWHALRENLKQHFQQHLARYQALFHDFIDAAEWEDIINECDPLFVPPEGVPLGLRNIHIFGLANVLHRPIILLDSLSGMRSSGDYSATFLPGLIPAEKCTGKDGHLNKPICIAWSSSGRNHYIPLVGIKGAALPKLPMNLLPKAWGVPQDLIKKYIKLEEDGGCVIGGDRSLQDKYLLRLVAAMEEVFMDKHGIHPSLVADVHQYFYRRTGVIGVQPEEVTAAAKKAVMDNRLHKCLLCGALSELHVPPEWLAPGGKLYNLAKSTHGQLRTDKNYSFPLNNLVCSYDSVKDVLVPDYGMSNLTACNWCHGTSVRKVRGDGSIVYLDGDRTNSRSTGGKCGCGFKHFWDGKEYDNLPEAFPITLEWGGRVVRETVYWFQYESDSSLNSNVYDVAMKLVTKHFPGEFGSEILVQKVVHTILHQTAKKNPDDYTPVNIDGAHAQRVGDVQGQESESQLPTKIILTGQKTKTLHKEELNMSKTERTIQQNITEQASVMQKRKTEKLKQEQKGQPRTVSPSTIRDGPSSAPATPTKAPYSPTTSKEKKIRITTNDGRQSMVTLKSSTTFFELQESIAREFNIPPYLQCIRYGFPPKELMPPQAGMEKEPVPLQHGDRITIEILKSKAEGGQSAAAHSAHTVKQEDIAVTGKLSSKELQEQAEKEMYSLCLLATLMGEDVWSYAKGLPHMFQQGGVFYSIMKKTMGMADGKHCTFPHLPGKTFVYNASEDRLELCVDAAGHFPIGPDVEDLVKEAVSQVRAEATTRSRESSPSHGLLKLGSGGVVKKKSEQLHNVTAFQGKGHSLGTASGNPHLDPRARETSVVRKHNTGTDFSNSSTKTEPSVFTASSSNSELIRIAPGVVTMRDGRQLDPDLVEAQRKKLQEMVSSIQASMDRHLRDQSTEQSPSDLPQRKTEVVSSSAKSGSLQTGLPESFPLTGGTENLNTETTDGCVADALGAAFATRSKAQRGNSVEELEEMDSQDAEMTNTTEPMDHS
UniProt P55072, whole entry, looked up: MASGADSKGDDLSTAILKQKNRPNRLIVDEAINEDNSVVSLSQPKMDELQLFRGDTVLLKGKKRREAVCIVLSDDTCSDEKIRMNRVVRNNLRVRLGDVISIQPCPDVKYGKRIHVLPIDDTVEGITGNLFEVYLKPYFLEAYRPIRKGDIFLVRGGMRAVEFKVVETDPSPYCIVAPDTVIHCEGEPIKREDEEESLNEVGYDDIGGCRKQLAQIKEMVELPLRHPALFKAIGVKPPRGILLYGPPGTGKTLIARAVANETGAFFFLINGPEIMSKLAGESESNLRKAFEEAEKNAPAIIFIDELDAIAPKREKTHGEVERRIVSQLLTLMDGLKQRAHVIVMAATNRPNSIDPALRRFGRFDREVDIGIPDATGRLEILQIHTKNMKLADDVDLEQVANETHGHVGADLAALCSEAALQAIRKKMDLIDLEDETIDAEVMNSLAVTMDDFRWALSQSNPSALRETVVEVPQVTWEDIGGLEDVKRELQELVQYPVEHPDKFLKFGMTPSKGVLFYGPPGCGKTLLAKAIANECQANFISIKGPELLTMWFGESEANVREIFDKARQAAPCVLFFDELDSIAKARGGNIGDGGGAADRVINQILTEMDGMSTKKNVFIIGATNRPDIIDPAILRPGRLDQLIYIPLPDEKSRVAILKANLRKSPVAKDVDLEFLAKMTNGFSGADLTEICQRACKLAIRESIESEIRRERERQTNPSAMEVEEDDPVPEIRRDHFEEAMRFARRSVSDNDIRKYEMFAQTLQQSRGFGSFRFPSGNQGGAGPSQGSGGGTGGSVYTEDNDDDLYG
UniProt Q8TAA9: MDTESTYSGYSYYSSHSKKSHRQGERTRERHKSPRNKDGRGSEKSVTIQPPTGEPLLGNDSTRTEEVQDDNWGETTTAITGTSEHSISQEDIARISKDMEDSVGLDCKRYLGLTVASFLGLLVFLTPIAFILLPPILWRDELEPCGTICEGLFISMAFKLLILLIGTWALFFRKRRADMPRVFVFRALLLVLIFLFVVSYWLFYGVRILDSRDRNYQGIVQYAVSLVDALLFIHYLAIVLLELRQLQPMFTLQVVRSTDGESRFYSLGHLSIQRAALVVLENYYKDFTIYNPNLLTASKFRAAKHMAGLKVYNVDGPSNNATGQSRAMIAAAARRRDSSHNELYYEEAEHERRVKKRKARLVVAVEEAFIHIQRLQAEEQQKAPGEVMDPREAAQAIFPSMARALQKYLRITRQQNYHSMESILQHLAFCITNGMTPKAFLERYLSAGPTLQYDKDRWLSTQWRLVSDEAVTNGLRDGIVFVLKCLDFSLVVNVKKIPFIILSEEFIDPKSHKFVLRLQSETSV
UniProt P61758, whole entry, looked up: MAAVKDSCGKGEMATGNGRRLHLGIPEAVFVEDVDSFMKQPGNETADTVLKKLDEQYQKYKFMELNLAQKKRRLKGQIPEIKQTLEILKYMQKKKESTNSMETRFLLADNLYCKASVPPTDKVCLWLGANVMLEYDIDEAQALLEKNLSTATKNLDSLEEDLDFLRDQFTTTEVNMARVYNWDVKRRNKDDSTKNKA
UniProt Q14119: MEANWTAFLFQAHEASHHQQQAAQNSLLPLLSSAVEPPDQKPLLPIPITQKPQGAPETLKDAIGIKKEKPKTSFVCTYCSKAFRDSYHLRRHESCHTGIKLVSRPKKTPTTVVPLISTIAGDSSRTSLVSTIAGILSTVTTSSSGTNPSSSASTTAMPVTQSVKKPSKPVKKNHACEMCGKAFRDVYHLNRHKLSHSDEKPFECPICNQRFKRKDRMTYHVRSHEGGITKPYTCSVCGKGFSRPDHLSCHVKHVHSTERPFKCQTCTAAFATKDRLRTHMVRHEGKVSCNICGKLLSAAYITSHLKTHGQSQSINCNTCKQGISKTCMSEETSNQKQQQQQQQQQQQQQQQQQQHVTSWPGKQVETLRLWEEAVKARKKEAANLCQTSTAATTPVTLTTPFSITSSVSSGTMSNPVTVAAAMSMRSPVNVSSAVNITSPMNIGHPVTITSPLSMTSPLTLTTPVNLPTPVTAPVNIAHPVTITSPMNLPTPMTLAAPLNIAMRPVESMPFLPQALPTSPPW
UniProt O14957: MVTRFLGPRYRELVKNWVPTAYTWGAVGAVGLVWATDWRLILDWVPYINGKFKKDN
UniProt Q9UBK9, whole entry, looked up: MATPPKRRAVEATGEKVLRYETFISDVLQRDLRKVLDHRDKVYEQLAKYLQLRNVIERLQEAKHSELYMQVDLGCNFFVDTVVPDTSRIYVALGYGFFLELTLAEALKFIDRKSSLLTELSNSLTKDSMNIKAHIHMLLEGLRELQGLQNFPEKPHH
UniProt P63027, whole entry, looked up: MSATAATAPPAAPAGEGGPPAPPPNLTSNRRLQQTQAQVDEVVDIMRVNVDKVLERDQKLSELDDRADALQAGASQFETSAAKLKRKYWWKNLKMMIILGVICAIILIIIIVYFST

Some of the results follow.

Compound in the first assay: C=CC(=O)N1CCC[C@@H](n2nc(-c3ccc(Oc4ccccc4)cc3)c3c(N)ncnc32)C1 [ibrutinib]
The assay is described as follows: log2 fold change, soluble protein after heating vs DMSO (PISA); higher = thermal stabilisation; K562 lysate, 10 uM; active = over 0.2 and 3.5 SD of the protein, either way, in both replicates (recomputed). The method in brief:
(§1)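 Values give the log-two fold change in thermal stability against solvent controls, from duplicates. Crude K562 extract at 1 mg/mL protein, made by dounce homogenisation in PBS pH 7.4 with 1 mM MgCl2, was treated with 10 μM compound for 30 min. After 3 min heating across 48°C-58°C, aliquots were pooled, adjusted to 0.5% NP-40 at 4°C and centrifuged at 21,000xg for 90 min. The supernatant was measured by TMTpro 16plex LC-MS/MS with channel sums equalised.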
Regarding UVRAG (UniProt Q9P2Y5), the log2 fold change was inactive: -0.05.
Take UNK (UniProt Q9C0B0): the log2 fold change was inactive: -0.003.
As for USF1 (UniProt P22415), the log2 fold change is inactive: 0.052.
Regarding UQCRB (UniProt P14927), the log2 fold change was inactive: 0.098.
Take VASP (UniProt P50552): the log2 fold change was inactive: -0.002.
Still for that read-out and setting: the figure for USP11 (UniProt P51784) is inactive: -0.042.
In the case of USP3 (UniProt Q9Y6I4), the log2 fold change was inactive: 0.01.
The same measure, in the same setting: the result for VIPAS39 (UniProt Q9H9C1) reads inactive: 0.037.
As for UTP14A (UniProt Q9BVJ6), the log2 fold change was inactive: 0.009.
Take VAV3 isoform 4 (UniProt Q9UKW4): the log2 fold change is inactive: 0.068.
On the same count and under the same terms, the figure for VIRMA (UniProt Q69YN4) is inactive: -0.034; for UTP6 (UniProt Q9NYH9) it is inactive: 0.171.
Take VCPIP1 (UniProt Q96JH7): the log2 fold change was inactive: 0.002.
Still for that read-out and setting: the result for VARS (UniProt P26640) reads inactive: 0.015; that for UFD1 isoform 1 (UniProt Q92890), inactive: 0.004.
In the case of USP13 (UniProt Q92995), the log2 fold change was inactive: 0.
With VCP (UniProt P55072), the log2 fold change was inactive: 0.015.
Turning to USP48 (UniProt Q86UV5), the log2 fold change is inactive: -0.028.
On to UTP15 (UniProt Q8TED0), for which the log2 fold change is inactive: 0.048.
With VANGL1 (UniProt Q8TAA9), the log2 fold change is inactive: 0.08.
As to VAV1 (UniProt P15498), the log2 fold change is inactive: -0.057.
For the target UTP4 (UniProt Q969X6), the log2 fold change was inactive: 0.018.
Regarding UPRT (UniProt Q96BW1), the log2 fold change was inactive: 0.042.
For USP8 (UniProt P40818), the log2 fold change was inactive: 0.048.
With VBP1 (UniProt P61758), the log2 fold change is inactive: -0.015.
As to VEZF1 (UniProt Q14119), the log2 fold change was inactive: 0.113.
Turning to ULBP1 (UniProt Q9BZM6), the log2 fold change was inactive: 0.031.
In the case of UQCR11 (UniProt O14957), the log2 fold change is inactive: 0.191.
Regarding USP10 isoform 2 (UniProt Q14694), the log2 fold change was inactive: -0.038.
As for VAPA (UniProt Q9P0L0), the log2 fold change is inactive: -0.024.
Still for that read-out and setting: the result for UXT isoform 2 (UniProt Q9UBK9) reads inactive: -0.078.
For VAMP2 (UniProt P63027), the log2 fold change was inactive: -0.039.

Compound in another assay: CC(=O)c1cnc2ccc(-c3cc(Cl)c(O)c(Cl)c3)nc2c1N[C@H]1CC[C@H](CN(C)C)CC1
The assay is described as above. The method in brief: as §1
Consider UVRAG (UniProt Q9P2Y5), for which the log2 fold change is inactive: 0.016.
Still for that read-out and setting: the figure for UNK (UniProt Q9C0B0) is inactive: 0.034; for USF1 (UniProt P22415) it is inactive: 0.005; for UQCRB (UniProt P14927) it is inactive: -0.024.
Same read-out and setting: the result for VASP (UniProt P50552) reads inactive: 0.002; that for USP11 (UniProt P51784), inactive: 0.004; that for USP3 (UniProt Q9Y6I4), inactive: 0.048.
With VIPAS39 (UniProt Q9H9C1), the log2 fold change is inactive: 0.03.
UTP14A (UniProt Q9BVJ6): the log2 fold change is inactive: 0.029.
Turning to VAV3 isoform 4 (UniProt Q9UKW4), the log2 fold change was inactive: -0.109.
For the target VIRMA (UniProt Q69YN4), the log2 fold change was inactive: 0.049.
With UTP6 (UniProt Q9NYH9), the log2 fold change is inactive: 0.114.
On to VCPIP1 (UniProt Q96JH7), for which the log2 fold change is inactive: 0.01.
For VARS (UniProt P26640), the log2 fold change was inactive: -0.003.
In the case of UFD1 isoform 1 (UniProt Q92890), the log2 fold change was inactive: 0.01.
On to USP13 (UniProt Q92995), for which the log2 fold change is inactive: -0.044.
For the target VCP (UniProt P55072), the log2 fold change is inactive: -0.009.
For the target USP48 (UniProt Q86UV5), the log2 fold change is inactive: -0.224.
Consider UTP15 (UniProt Q8TED0), for which the log2 fold change was inactive: 0.029.
Still for that read-out and setting: the figure for VANGL1 (UniProt Q8TAA9) is inactive: -0.041; for VAV1 (UniProt P15498) it is inactive: 0.054.
As to UTP4 (UniProt Q969X6), the log2 fold change is inactive: -0.016.
Take UPRT (UniProt Q96BW1): the log2 fold change is inactive: 0.156.
As for USP8 (UniProt P40818), the log2 fold change is inactive: -0.009.
On the same count and under the same terms, the result for VBP1 (UniProt P61758) reads inactive: -0.008; that for VEZF1 (UniProt Q14119), inactive: 0.01.
With ULBP1 (UniProt Q9BZM6), the log2 fold change was inactive: 0.026.
With UQCR11 (UniProt O14957), the log2 fold change is inactive: -0.006.
Same read-out and setting: the figure for USP10 isoform 2 (UniProt Q14694) is inactive: 0.001; for VAPA (UniProt Q9P0L0) it is inactive: 0.002; for UXT isoform 2 (UniProt Q9UBK9) it is inactive: -0.018.
VAMP2 (UniProt P63027): the log2 fold change is inactive: -0.027.

Compound in a further assay: CC(C)(C)Cn1c(N)nc2ccc(-c3[nH]c(C(C)(C)C)nc3-c3ccc(F)cc3)nc21 [ralimetinib]
The description is as above. A digest of the protocol:
as §1
Turning to UVRAG (UniProt Q9P2Y5), the log2 fold change is inactive: -0.048.
Take UNK (UniProt Q9C0B0): the log2 fold change was inactive: -0.13.
As for USF1 (UniProt P22415), the log2 fold change was inactive: 0.12.
As for UQCRB (UniProt P14927), the log2 fold change is inactive: -0.002.
For VASP (UniProt P50552), the log2 fold change was inactive: -0.003.
With USP11 (UniProt P51784), the log2 fold change was inactive: -0.018.
Consider USP3 (UniProt Q9Y6I4), for which the log2 fold change was inactive: 0.042.
Turning to VIPAS39 (UniProt Q9H9C1), the log2 fold change was inactive: -0.007.
Consider UTP14A (UniProt Q9BVJ6), for which the log2 fold change is inactive: 0.001.
The same measure, in the same setting: the figure for VAV3 isoform 4 (UniProt Q9UKW4) is inactive: -0.049; for VIRMA (UniProt Q69YN4) it is inactive: 0.027; for UTP6 (UniProt Q9NYH9) it is inactive: 0.031.
As to VCPIP1 (UniProt Q96JH7), the log2 fold change was inactive: 0.009.
Same read-out and setting: the figure for VARS (UniProt P26640) is inactive: 0.042.
As to UFD1 isoform 1 (UniProt Q92890), the log2 fold change was inactive: 0.021.
With USP13 (UniProt Q92995), the log2 fold change is inactive: -0.038.
For the target VCP (UniProt P55072), the log2 fold change is inactive: -0.031.
The same measure, in the same setting: the figure for USP48 (UniProt Q86UV5) is inactive: -0.038.
Still for that read-out and setting: the figure for UTP15 (UniProt Q8TED0) is inactive: 0.036; for VANGL1 (UniProt Q8TAA9) it is active: -0.317; for VAV1 (UniProt P15498) it is inactive: 0.083.
For the target UTP4 (UniProt Q969X6), the log2 fold change is inactive: -0.006.
As to UPRT (UniProt Q96BW1), the log2 fold change was inactive: 0.101.
USP8 (UniProt P40818): the log2 fold change was inactive: 0.
Regarding VBP1 (UniProt P61758), the log2 fold change is inactive: 0.005.
With VEZF1 (UniProt Q14119), the log2 fold change was inactive: 0.1.
Take ULBP1 (UniProt Q9BZM6): the log2 fold change is inactive: -0.022.
Regarding UQCR11 (UniProt O14957), the log2 fold change is inactive: 0.11.
On the same count and under the same terms, the figure for USP10 isoform 2 (UniProt Q14694) is inactive: -0.019; for VAPA (UniProt Q9P0L0) it is inactive: -0.105.
In the case of UXT isoform 2 (UniProt Q9UBK9), the log2 fold change was inactive: -0.063.
On to VAMP2 (UniProt P63027), for which the log2 fold change was inactive: 0.002.
